# Patent publication US20230010803A1, “TREATMENTS FOR DIFFUSE LARGE B-CELL LYMPHOMA” (Janssen Pharmaceutica NV, priority 2021, published 2023)
# Read-outs that look alike come from different tables or passages of the source. For at least one compound, name, drawing or mass did not settle the structure.
# How the values were obtained:
# [1] = system: non-GCB DLBCL; assay: Phoenix phase III randomized trial of R-CHOP with or without ibrutinib, analysed by LymphGen genetic subtype; format: in vivo, human; settings: ibrutinib added to R-CHOP
# [2] = system: relapsed/refractory DLBCL; settings: cited from earlier work
# [3] = system: non-GCB DLBCL; settings: cited from earlier work
# [4] = younger patients (<60 years), R-CHOP with ibrutinib vs R-CHOP with placebo
smiles,measurement,setting,value
C=CC(=O)N1CCC[C@@H](n2nc(-c3ccc(Oc4ccccc4)cc3)c3c(N)ncnc32)C1 [ibrutinib],benefit from ibrutinib,"[1]; older patients (>60), regardless of genetic subtype",did not benefit
same,benefit from ibrutinib,[1]; younger non-MCD patients,also benefitted
same,benefit from ibrutinib,[1]; younger patients with BN2 DLBCL (n=21),did not benefit
same,response rate,[2]; ABC cases,37%
same,response rate,[2]; GCB cases,5%
same,objective response rate,[2]; tumors with CD79B and MYD88 mutations,80%
same,survival compared to the placebo arm,[3]; older patients on the ibrutinib arm,lower survival
same,event-free survival (EFS) greater in the ibrutinib arm compared to the placebo arm,[3]; [4],10.8%
same,overall survival (OS) greater in the ibrutinib arm compared to the placebo arm,[3]; [4],12.3%
